In doi:10.1101/609503 one finds binding data, which are given here for 2 substances.

By UniProt entry, the sequences of proteins in these tests, tags left out. Residues count along the entry.
UniProt P06136: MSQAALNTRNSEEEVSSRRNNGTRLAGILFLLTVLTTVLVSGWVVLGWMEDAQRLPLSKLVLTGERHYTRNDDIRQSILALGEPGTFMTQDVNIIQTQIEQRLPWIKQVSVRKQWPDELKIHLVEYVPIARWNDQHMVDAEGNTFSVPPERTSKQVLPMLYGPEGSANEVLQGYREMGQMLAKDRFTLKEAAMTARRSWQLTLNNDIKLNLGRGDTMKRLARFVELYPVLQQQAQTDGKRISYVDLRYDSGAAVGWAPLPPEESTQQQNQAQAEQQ
UniProt P24228, residues 21-477: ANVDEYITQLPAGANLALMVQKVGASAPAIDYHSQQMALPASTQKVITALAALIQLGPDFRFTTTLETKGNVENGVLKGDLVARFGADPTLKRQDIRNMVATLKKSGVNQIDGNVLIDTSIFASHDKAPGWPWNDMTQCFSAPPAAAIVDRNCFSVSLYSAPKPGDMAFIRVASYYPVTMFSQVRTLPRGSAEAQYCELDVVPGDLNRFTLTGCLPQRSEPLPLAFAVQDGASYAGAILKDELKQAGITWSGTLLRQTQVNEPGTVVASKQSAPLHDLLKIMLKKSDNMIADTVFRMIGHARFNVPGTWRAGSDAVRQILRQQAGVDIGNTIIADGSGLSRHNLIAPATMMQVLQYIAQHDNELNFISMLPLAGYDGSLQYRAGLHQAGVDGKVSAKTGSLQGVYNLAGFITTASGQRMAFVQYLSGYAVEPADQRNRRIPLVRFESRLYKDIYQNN

Experiment [1] has as its target T1, NlpI (soluble version, residues 19-294) (E. coli) (UniProt P0AFB1).
T1 sequence (chain, NT647 RED-NHS dye on amines where used as the labelled partner (fl-NlpI)): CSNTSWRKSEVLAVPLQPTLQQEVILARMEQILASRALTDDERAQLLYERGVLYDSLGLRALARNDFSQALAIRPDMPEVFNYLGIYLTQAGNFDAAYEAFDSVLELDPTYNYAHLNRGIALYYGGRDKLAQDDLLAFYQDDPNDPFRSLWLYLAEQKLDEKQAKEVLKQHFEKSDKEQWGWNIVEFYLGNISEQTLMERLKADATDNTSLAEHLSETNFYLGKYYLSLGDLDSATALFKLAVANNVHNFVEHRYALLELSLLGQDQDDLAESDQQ
The experiment in a line: affinity purification with mass spectrometry.

The target of experiment [2] is T1, NlpI (soluble version, residues 19-294) (E. coli). As to the kind of experiment: affinity purification with mass spectrometry. This is another data set of the same source.

Read-outs that look alike come from different tables or passages of the source. No constants are given. Whether binding was seen depends on the method and setting. Binding seen in cells or lysates may run through a third protein. These calls come from enrichment with a bait or labelling near it, and not all partners need be listed.

In the case of “FtsQ (endogenous, membrane extract) (from UniProt P06136 1-276)”, the binding result in experiment [1] and in experiment [2] was “binds” in each case.

Turning to “PBP4 (endogenous, membrane extract) (from UniProt P24228 21-477) (enzyme)”, in experiment [2], the binding entry is listed as “binds”.
